Measurements from article PMC8438042.
No constants are given. Whether binding was seen depends on the method and setting. In cells and extracts the contact can be indirect. Some entries that bind do so weakly or less than the wild type. For some assays here: Sequences can lack the tags named with a protein.

Protein sequences, listed by entry. Tags and fused reporters are not part of them. Lines headed by an entry give the natural chain unless they say otherwise; changes in a name come on top. Chains listed by the source or under a name are the forms on record and can include a tag or linker.
UniProt E9PV87: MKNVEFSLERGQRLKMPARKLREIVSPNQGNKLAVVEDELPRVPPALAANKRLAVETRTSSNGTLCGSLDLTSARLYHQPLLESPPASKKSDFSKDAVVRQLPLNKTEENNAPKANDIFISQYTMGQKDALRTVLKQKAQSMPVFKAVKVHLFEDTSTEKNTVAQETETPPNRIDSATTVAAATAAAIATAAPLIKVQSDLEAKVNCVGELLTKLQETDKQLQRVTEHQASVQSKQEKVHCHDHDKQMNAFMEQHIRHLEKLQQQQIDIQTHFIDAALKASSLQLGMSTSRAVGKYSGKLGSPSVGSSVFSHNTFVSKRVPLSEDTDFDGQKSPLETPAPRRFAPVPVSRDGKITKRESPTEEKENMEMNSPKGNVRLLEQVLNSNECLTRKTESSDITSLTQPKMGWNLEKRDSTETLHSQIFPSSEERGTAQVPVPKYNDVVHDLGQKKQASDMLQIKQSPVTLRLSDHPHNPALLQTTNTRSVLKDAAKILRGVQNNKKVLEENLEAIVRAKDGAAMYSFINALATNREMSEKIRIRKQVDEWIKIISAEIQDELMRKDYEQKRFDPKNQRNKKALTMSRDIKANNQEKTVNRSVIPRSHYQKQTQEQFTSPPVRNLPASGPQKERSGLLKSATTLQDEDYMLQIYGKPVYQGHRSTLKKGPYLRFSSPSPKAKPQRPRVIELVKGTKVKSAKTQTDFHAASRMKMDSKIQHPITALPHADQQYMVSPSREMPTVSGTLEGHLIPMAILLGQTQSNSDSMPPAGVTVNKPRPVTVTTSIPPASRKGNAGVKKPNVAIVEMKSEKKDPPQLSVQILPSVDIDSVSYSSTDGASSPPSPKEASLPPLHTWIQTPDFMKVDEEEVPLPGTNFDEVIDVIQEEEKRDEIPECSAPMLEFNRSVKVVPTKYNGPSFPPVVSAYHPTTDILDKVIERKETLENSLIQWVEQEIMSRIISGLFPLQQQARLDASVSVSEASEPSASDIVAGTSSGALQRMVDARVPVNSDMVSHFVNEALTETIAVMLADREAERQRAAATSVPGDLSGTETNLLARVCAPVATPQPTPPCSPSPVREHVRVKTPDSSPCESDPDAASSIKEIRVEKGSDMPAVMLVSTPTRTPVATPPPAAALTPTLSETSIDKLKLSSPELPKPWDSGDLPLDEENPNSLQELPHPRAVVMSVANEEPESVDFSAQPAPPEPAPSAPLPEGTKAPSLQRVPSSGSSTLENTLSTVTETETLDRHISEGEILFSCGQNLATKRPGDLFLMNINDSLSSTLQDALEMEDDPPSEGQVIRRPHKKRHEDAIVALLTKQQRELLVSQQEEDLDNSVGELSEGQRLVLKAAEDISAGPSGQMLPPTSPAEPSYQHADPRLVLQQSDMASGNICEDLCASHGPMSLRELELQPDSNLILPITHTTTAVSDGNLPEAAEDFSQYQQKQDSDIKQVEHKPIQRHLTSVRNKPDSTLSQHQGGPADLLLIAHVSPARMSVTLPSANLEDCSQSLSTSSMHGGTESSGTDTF
FBW7γ-HA (Q969H0-4, form named): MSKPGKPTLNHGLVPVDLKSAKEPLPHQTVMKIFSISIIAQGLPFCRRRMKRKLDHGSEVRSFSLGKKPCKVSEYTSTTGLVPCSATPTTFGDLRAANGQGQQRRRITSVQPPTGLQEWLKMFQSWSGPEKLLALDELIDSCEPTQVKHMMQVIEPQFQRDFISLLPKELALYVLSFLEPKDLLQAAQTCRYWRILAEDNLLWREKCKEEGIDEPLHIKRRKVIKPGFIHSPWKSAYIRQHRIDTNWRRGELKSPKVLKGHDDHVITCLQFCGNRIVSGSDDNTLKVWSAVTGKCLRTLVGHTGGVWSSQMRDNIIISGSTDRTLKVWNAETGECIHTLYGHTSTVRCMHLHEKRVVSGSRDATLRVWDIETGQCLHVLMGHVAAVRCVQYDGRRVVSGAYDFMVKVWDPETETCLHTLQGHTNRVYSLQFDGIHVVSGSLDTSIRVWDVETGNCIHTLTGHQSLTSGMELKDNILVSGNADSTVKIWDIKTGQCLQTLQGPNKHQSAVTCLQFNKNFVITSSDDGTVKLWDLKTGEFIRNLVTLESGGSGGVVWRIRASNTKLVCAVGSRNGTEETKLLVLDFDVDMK
FBW7β-HA (Q969H0-2, form named): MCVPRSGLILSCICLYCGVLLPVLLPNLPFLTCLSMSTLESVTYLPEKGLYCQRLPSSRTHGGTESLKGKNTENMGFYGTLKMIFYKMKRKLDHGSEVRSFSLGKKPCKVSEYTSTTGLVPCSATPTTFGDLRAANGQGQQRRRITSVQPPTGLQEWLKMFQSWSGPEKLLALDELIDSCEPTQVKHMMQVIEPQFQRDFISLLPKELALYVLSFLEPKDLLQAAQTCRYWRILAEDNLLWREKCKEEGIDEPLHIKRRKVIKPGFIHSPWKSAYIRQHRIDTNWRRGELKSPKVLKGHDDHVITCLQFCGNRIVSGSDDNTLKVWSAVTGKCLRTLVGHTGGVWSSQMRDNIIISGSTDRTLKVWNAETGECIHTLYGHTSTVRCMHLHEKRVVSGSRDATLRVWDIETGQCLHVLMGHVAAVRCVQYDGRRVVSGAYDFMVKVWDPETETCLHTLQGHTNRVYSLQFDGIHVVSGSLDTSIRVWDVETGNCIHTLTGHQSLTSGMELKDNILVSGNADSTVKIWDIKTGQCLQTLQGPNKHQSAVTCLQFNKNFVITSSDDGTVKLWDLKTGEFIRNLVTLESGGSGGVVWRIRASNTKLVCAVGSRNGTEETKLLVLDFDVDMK
UniProt P10070: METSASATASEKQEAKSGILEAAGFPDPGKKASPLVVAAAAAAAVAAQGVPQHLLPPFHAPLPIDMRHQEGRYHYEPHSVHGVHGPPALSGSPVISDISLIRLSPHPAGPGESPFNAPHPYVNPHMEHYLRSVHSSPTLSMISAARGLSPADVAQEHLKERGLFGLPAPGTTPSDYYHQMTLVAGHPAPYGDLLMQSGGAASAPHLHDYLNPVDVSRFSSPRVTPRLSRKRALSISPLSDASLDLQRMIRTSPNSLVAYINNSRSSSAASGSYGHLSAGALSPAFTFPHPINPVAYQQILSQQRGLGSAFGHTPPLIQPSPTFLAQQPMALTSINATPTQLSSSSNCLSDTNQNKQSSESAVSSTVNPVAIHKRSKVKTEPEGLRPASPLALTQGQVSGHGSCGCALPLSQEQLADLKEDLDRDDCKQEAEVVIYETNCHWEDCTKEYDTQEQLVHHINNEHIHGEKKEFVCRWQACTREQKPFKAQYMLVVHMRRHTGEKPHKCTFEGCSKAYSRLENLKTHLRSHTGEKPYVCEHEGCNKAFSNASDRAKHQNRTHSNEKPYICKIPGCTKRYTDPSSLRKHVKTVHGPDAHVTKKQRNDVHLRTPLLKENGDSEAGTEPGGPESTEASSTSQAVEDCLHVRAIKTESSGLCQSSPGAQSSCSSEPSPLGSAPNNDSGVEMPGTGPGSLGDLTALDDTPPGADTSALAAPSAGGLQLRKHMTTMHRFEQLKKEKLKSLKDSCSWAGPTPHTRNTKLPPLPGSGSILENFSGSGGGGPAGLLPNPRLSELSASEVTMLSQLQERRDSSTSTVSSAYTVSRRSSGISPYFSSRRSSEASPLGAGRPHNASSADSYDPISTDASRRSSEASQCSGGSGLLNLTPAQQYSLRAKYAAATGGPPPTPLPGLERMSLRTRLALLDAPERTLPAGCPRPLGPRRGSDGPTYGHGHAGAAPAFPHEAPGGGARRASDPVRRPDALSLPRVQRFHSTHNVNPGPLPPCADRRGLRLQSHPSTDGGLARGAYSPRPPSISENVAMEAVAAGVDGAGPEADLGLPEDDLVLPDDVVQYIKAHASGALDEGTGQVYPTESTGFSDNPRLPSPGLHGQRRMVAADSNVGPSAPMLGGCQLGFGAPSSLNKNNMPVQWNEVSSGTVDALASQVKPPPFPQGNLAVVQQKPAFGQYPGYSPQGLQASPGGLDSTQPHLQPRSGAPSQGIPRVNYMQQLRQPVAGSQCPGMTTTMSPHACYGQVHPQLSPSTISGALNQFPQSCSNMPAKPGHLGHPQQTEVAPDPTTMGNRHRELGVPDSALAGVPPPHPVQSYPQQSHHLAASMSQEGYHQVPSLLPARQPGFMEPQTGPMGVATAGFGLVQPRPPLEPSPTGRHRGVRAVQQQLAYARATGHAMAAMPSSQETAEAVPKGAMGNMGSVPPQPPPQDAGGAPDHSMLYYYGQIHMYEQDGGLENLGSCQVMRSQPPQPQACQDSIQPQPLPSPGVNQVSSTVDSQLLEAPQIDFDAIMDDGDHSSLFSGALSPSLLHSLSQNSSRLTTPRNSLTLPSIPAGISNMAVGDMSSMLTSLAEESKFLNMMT

T1: NDE1-FLAG (human) (UniProt Q9NXR1)
T1 sequence: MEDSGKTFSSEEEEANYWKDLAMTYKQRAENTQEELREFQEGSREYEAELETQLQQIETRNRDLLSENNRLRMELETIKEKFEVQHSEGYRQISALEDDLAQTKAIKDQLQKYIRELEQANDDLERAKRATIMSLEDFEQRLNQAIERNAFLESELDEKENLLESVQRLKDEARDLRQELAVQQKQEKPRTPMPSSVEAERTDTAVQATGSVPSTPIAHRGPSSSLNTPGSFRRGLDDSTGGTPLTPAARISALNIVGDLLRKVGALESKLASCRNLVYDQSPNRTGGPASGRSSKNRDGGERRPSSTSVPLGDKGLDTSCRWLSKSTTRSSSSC


Columns and labels:
TALPID3-DDK-MYC (mouse) = TALPID3-DDK-MYC (mouse) (UniProt E9PV87); experiment: co-IP; HEK293T cells transiently transfected; lysates incubated either with a-TALPID3 or with a-HA overnight, Protein G Sepharose beads 3 h at 4 °C, Western blot
NDE1-FLAG (human) = molecular target: T1, NDE1-FLAG (human); experiment: co-IP; HEK293T cells transiently transfected; lysates (1% Triton X-100, 150 mM NaCl, 10 mM Tris-HCl pH 7.5) incubated with the FLAG antibody overnight, Protein G Sepharose beads 3 h at 4 °C, Western blot
[1] = molecular target: bacterial alkaline phosphatase (FLAG-BAP) [phosphatase: P00634]; experiment: as above

| binding (TALPID3-DDK-MYC (mouse)) | Molecule | also measured |
| --- | --- | --- |
| binds | FBW7α-HA (from UniProt Q969H0-1 1-707) | – |
| binds | FBW7γ-HA (from UniProt Q969H0-4 1-589) | – |
| binds | FBW7β-HA (from UniProt Q969H0-2 1-627) | – |
| – | GLI2-myc (from UniProt P10070 1-1586) | binding (NDE1-FLAG (human)): binds |
| – | NDE1-FLAG (protein, UniProt Q9NXR1 1-335) MEDSGKTFSSEEEEANYWKDLAMTYKQRAENTQEELREFQEGSREYEAELETQLQQIETRNRDLLSENNRLRMELETIKEKFEVQHSEGYRQISALEDDLAQTKAIKDQLQKYIRELEQANDDLERAKRATIMSLEDFEQRLNQAIERNAFLESELDEKENLLESVQRLKDEARDLRQELAVQQKQEKPRTPMPSSVEAERTDTAVQATGSVPSTPIAHRGPSSSLNTPGSFRRGLDDSTGGTPLTPAARISALNIVGDLLRKVGALESKLASCRNLVYDQSPNRTGGPASGRSSKNRDGGERRPSSTSVPLGDKGLDTSCRWLSKSTTRSSSSC | binding [1]: no binding |
